The source of these data is article PMC12219335.

By UniProt entry, the sequences of proteins in these tests, tags left out. Residues count along the entry.
UniProt Q9NZQ7, residues 19-290: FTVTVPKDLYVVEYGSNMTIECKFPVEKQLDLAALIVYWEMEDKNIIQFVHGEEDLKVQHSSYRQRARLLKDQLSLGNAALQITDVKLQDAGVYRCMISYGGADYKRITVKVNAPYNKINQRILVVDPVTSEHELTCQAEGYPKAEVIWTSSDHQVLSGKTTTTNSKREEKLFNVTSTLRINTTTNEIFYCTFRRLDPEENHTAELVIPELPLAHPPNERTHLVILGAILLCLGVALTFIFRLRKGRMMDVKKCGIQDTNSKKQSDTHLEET

These are yes or no findings as the source states them, for the method shown. Binding seen in cells or lysates may run through a third protein. Here binding means that the protein was enriched with, or labelled near, the bait; the list need not be complete.

For this assay, the target named is programmed death ligand 1 (PD-L1) (human (endogenous in SCC9)) (UniProt Q9NZQ7). Briefly: affinity purification with mass spectrometry; anti-PD-L1 antibody precipitation from SCC9 cells, control and NMT1 knock-down; proteins whose binding to PD-L1 changed were screened by mass spectrometry and crossed with the YnMyr myristoylation proteomics.

B1: calcineurin B homologous protein 1 (CHP1) (protein, UniProt Q99653 1-195)
chain: MGSRASTLLRDEELEEIKKETGFSHSQITRLYSRFTSLDKGENGTLSREDFQRIPELAINPLGDRIINAFFPEGEDQVNFRGFMRTLAHFRPIEDNEKSKDVNGPEPLNSRSNKLHFAFRLYDLDKDEKISRDELLQVLRMMVGVNISDEQLGSIADRTIQEADQDGDSAISFTEFVKVLEKVDVEQKMSIRFLH
modifications: N-terminal myristoylation (by NMT1; labelled by YnMyr)
On to B1, for which the binding entry was “binds”.
